# Values quoted from earlier work in publication PMC9495826, “Membranolytic Mechanism of Amphiphilic Antimicrobial β-Stranded [KL]n Peptides” (Biomedicines, 2022).
# Read-outs that look alike come from different tables or passages of the source.
# Settings: ref [58],[59], cited from earlier work
substance,measurement,setting,value
alamethicin,Inner diameter of water-filled barrel-stave pores,in DLPC,1.8 nm
same,Inner diameter of water-filled barrel-stave pores,in DPhPC,2.6 nm
